Measured values as given in PMC4432227.
Results are given in words; binding and its absence hold for the method and conditions named. For some of these results: In cells and extracts the contact can be indirect. Some entries that bind do so weakly or less than the wild type. Where a sequence is shown, tags or fusion partners need not be part of it.

The chains behind the UniProt entries cited, without tags or fusion partners.
UniProt Q9NVJ2: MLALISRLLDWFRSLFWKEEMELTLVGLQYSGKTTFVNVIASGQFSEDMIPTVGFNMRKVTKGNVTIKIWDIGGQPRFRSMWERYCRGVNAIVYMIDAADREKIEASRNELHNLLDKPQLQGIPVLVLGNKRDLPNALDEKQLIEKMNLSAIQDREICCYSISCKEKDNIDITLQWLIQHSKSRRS

Columns and labels:
[1] = molecular target: T1, SKIP (yeast two-hybrid fusion) (UniProt Q8IWE5); experiment: two-hybrid; S. cerevisiae AH109 co-transformants (pGBKT7 and pGADT7), grown at 30°C, replated on non-selection (+HIS) and selection (−HIS) plates
T1 sequence: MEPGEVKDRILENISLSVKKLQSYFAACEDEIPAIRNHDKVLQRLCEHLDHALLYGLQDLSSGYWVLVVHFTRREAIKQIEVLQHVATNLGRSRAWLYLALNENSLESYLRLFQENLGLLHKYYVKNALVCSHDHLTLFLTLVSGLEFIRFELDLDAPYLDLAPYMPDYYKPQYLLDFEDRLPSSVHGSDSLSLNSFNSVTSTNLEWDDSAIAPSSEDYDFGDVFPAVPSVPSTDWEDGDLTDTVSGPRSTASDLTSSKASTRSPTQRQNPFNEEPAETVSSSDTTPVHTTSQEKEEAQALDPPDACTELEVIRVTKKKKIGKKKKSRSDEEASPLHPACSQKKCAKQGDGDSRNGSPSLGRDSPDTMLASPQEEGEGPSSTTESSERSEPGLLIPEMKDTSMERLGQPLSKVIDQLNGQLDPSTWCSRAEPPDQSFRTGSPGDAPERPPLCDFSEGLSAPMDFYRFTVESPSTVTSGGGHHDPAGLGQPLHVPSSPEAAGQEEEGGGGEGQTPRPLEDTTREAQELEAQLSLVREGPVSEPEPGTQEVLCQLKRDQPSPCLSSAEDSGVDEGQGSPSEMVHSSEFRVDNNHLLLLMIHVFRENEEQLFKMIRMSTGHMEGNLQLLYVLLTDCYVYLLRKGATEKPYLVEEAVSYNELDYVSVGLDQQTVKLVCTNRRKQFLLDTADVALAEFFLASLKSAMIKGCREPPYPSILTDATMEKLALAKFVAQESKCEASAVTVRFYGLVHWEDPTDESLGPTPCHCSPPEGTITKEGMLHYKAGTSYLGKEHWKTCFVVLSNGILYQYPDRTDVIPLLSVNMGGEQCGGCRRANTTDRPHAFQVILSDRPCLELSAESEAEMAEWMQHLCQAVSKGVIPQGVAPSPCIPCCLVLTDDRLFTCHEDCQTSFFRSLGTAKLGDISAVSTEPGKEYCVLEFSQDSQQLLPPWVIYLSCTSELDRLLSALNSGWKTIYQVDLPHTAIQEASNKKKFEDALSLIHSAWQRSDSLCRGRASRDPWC

[2] = molecular target: Arl8b (yeast two-hybrid fusion, Arl8b-pGBKT7) (UniProt Q9NVJ2); experiment: as above
[3] = molecular target: GST–Arl8b (UniProt Q9NVJ2); experiment: pull-down; GST proteins on glutathione-conjugated beads incubated with transfected HeLa cell lysates; immunoblot; only the target purified
[4] = molecular target: GST–Arl8b (UniProt Q9NVJ2); experiment: pull-down; GST–Arl8b as bait incubated with transfected HEK293T cell lysates; MG132 (2 µM, 12 hours) to restore expression of Vps41-NΔ450; only the target purified

| binding [4] | Binder | also measured |
| --- | --- | --- |
| binds | Vps41-L713X (domain or fragment, UniProt P49754 1-712) MAEAEEQETGSLEESTDESEEEESEEEPKLKYERLSNGVTEILQKDAASCMTVHDKFLALGTHYGKVYLLDVQGNITQKFDVSPVKINQISLDESGEHMGVCSEDGKVQVFGLYSGEEFHETFDCPIKIIAVHPHFVRSSCKQFVTGGKKLLLFERSWMNRWKSAVLHEGEGNIRSVKWRGHLIAWANNMGVKIFDIISKQRITNVPRDDISLRPDMYPCSLCWKDNVTLIIGWGTSVKVCSVKERHASEMRDLPSRYVEIVSQFETEFYISGLAPLCDQLVVLSYVKEISEKTEREYCARPRLDIIQPLSETCEEISSDALTVRGFQENECRDYHLEYSEGESLFYIVSPRDVVVAKERDQDDHIDWLLEKKKYEEALMAAEISQKNIKRHKILDIGLAYINHLVERGDYDIAARKCQKILGKNAALWEYEVYKFKEIGQLKAISPYLPRGDPVLKPLIYEMILHEFLESDYEGFATLIREWPGDLYNNSVIVQAVRDHLKKDSQNKTLLKTLAELYTYDKNYGNALEIYLTLRHKDVFQLIHKHNLFSSIKDKIVLLMDFDSEKAVDMLLDNEDKISIKKVVEELEDRPELQHVYLHKLFKRDHHKGQRYHEKQISLYAEYDRPNLLPFLRDSTHCPLEKALEICQQRNFVEETVYLLSRMGNSRSALKMIMEELHDVDKAIEFAKEQDDGELWEDLILYSIDKPPFITG |  |
| no binding | HA-Vps41-NΔ450 (domain or fragment, UniProt P49754 451-854) RGDPVLKPLIYEMILHEFLESDYEGFATLIREWPGDLYNNSVIVQAVRDHLKKDSQNKTLLKTLAELYTYDKNYGNALEIYLTLRHKDVFQLIHKHNLFSSIKDKIVLLMDFDSEKAVDMLLDNEDKISIKKVVEELEDRPELQHVYLHKLFKRDHHKGQRYHEKQISLYAEYDRPNLLPFLRDSTHCPLEKALEICQQRNFVEETVYLLSRMGNSRSALKMIMEELHDVDKAIEFAKEQDDGELWEDLILYSIDKPPFITGLLNNIGTHVDPILLIHRIKEGMEIPNLRDSLVKILQDYNLQILLREGCKKILVADSLSLLKKMHRTQMKGVLVDEENICESCLSPILPSDAAKPFSVVVFHCRHMFHKECLPMPSMNSAAQFCNICSAKNRGPGSAILEMKK |  |

Continued, binder first:

| Binder | binding [4] | also measured |
| --- | --- | --- |
| hVps41 (yeast two-hybrid fusion) (protein, UniProt P49754 1-854) MAEAEEQETGSLEESTDESEEEESEEEPKLKYERLSNGVTEILQKDAASCMTVHDKFLALGTHYGKVYLLDVQGNITQKFDVSPVKINQISLDESGEHMGVCSEDGKVQVFGLYSGEEFHETFDCPIKIIAVHPHFVRSSCKQFVTGGKKLLLFERSWMNRWKSAVLHEGEGNIRSVKWRGHLIAWANNMGVKIFDIISKQRITNVPRDDISLRPDMYPCSLCWKDNVTLIIGWGTSVKVCSVKERHASEMRDLPSRYVEIVSQFETEFYISGLAPLCDQLVVLSYVKEISEKTEREYCARPRLDIIQPLSETCEEISSDALTVRGFQENECRDYHLEYSEGESLFYIVSPRDVVVAKERDQDDHIDWLLEKKKYEEALMAAEISQKNIKRHKILDIGLAYINHLVERGDYDIAARKCQKILGKNAALWEYEVYKFKEIGQLKAISPYLPRGDPVLKPLIYEMILHEFLESDYEGFATLIREWPGDLYNNSVIVQAVRDHLKKDSQNKTLLKTLAELYTYDKNYGNALEIYLTLRHKDVFQLIHKHNLFSSIKDKIVLLMDFDSEKAVDMLLDNEDKISIKKVVEELEDRPELQHVYLHKLFKRDHHKGQRYHEKQISLYAEYDRPNLLPFLRDSTHCPLEKALEICQQRNFVEETVYLLSRMGNSRSALKMIMEELHDVDKAIEFAKEQDDGELWEDLILYSIDKPPFITGLLNNIGTHVDPILLIHRIKEGMEIPNLRDSLVKILQDYNLQILLREGCKKILVADSLSLLKKMHRTQMKGVLVDEENICESCLSPILPSDAAKPFSVVVFHCRHMFHKECLPMPSMNSAAQFCNICSAKNRGPGSAILEMKK |  | binding [1]: no binding; binding [2]: binds |
| HA–Vps41-A187T (protein, UniProt P49754 1-854) MAEAEEQETGSLEESTDESEEEESEEEPKLKYERLSNGVTEILQKDAASCMTVHDKFLALGTHYGKVYLLDVQGNITQKFDVSPVKINQISLDESGEHMGVCSEDGKVQVFGLYSGEEFHETFDCPIKIIAVHPHFVRSSCKQFVTGGKKLLLFERSWMNRWKSAVLHEGEGNIRSVKWRGHLIAWTNNMGVKIFDIISKQRITNVPRDDISLRPDMYPCSLCWKDNVTLIIGWGTSVKVCSVKERHASEMRDLPSRYVEIVSQFETEFYISGLAPLCDQLVVLSYVKEISEKTEREYCARPRLDIIQPLSETCEEISSDALTVRGFQENECRDYHLEYSEGESLFYIVSPRDVVVAKERDQDDHIDWLLEKKKYEEALMAAEISQKNIKRHKILDIGLAYINHLVERGDYDIAARKCQKILGKNAALWEYEVYKFKEIGQLKAISPYLPRGDPVLKPLIYEMILHEFLESDYEGFATLIREWPGDLYNNSVIVQAVRDHLKKDSQNKTLLKTLAELYTYDKNYGNALEIYLTLRHKDVFQLIHKHNLFSSIKDKIVLLMDFDSEKAVDMLLDNEDKISIKKVVEELEDRPELQHVYLHKLFKRDHHKGQRYHEKQISLYAEYDRPNLLPFLRDSTHCPLEKALEICQQRNFVEETVYLLSRMGNSRSALKMIMEELHDVDKAIEFAKEQDDGELWEDLILYSIDKPPFITGLLNNIGTHVDPILLIHRIKEGMEIPNLRDSLVKILQDYNLQILLREGCKKILVADSLSLLKKMHRTQMKGVLVDEENICESCLSPILPSDAAKPFSVVVFHCRHMFHKECLPMPSMNSAAQFCNICSAKNRGPGSAILEMKK |  | binding [3]: binds |
| HA–Vps41 (HEK293T) (protein, UniProt P49754 1-854) MAEAEEQETGSLEESTDESEEEESEEEPKLKYERLSNGVTEILQKDAASCMTVHDKFLALGTHYGKVYLLDVQGNITQKFDVSPVKINQISLDESGEHMGVCSEDGKVQVFGLYSGEEFHETFDCPIKIIAVHPHFVRSSCKQFVTGGKKLLLFERSWMNRWKSAVLHEGEGNIRSVKWRGHLIAWANNMGVKIFDIISKQRITNVPRDDISLRPDMYPCSLCWKDNVTLIIGWGTSVKVCSVKERHASEMRDLPSRYVEIVSQFETEFYISGLAPLCDQLVVLSYVKEISEKTEREYCARPRLDIIQPLSETCEEISSDALTVRGFQENECRDYHLEYSEGESLFYIVSPRDVVVAKERDQDDHIDWLLEKKKYEEALMAAEISQKNIKRHKILDIGLAYINHLVERGDYDIAARKCQKILGKNAALWEYEVYKFKEIGQLKAISPYLPRGDPVLKPLIYEMILHEFLESDYEGFATLIREWPGDLYNNSVIVQAVRDHLKKDSQNKTLLKTLAELYTYDKNYGNALEIYLTLRHKDVFQLIHKHNLFSSIKDKIVLLMDFDSEKAVDMLLDNEDKISIKKVVEELEDRPELQHVYLHKLFKRDHHKGQRYHEKQISLYAEYDRPNLLPFLRDSTHCPLEKALEICQQRNFVEETVYLLSRMGNSRSALKMIMEELHDVDKAIEFAKEQDDGELWEDLILYSIDKPPFITGLLNNIGTHVDPILLIHRIKEGMEIPNLRDSLVKILQDYNLQILLREGCKKILVADSLSLLKKMHRTQMKGVLVDEENICESCLSPILPSDAAKPFSVVVFHCRHMFHKECLPMPSMNSAAQFCNICSAKNRGPGSAILEMKK | binds |  |
| Vps41-L532X (domain or fragment, UniProt P49754 1-531) MAEAEEQETGSLEESTDESEEEESEEEPKLKYERLSNGVTEILQKDAASCMTVHDKFLALGTHYGKVYLLDVQGNITQKFDVSPVKINQISLDESGEHMGVCSEDGKVQVFGLYSGEEFHETFDCPIKIIAVHPHFVRSSCKQFVTGGKKLLLFERSWMNRWKSAVLHEGEGNIRSVKWRGHLIAWANNMGVKIFDIISKQRITNVPRDDISLRPDMYPCSLCWKDNVTLIIGWGTSVKVCSVKERHASEMRDLPSRYVEIVSQFETEFYISGLAPLCDQLVVLSYVKEISEKTEREYCARPRLDIIQPLSETCEEISSDALTVRGFQENECRDYHLEYSEGESLFYIVSPRDVVVAKERDQDDHIDWLLEKKKYEEALMAAEISQKNIKRHKILDIGLAYINHLVERGDYDIAARKCQKILGKNAALWEYEVYKFKEIGQLKAISPYLPRGDPVLKPLIYEMILHEFLESDYEGFATLIREWPGDLYNNSVIVQAVRDHLKKDSQNKTLLKTLAELYTYDKNYGNALEIY | binds |  |
